Results are given in words; binding and its absence hold for the method and conditions named. Binding seen in cells or lysates may run through a third protein. Here binding means that the protein was enriched with, or labelled near, the bait; the list need not be complete. Tags and fused reporters may be left off the sequences shown.
T1: His6-Gis1 (yeast (S. cerevisiae)) (UniProt Q03833)
T1 sequence: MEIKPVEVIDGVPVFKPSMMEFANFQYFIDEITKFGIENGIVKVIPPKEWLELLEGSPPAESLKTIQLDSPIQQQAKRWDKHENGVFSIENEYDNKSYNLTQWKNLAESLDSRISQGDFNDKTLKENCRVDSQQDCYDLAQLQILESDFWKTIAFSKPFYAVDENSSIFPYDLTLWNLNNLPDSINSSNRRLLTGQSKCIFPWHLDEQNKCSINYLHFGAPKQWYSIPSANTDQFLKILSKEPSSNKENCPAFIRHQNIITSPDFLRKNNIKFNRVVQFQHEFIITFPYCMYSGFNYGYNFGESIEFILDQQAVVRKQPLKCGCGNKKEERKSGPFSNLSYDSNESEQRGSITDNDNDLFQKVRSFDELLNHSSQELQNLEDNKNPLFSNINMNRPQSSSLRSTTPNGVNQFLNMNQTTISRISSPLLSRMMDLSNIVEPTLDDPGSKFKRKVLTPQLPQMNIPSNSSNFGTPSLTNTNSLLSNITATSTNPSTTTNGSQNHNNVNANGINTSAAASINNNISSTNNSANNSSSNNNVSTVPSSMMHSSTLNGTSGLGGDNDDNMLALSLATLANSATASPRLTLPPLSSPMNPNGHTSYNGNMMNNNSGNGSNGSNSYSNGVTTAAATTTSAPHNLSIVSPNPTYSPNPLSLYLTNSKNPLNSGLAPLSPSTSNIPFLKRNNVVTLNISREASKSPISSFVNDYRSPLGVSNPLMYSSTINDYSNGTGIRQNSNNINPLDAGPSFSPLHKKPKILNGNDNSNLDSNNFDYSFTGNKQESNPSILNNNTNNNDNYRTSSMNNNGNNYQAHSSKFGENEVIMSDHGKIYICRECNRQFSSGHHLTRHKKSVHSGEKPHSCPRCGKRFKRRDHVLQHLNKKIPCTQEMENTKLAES


Target: T1, His6-Gis1 (yeast (S. cerevisiae))
Test: affinity purification with mass spectrometry; His6-Gis1 pre-bound to a Ni Sepharose 6 Fast Flow column; crude yeast extract (Δgis1 cells grown in air or under hypoxia, Δgis1Δhem1 cells at intermediate or high ALA) loaded, 4 °C, 2 h; eluted complexes separated by SDS-PAGE, bands excised, MS; only the target purified

binding | Binder
binds | BCK1 (protein, UniProt Q01389 1-1478) MPFLRKIAGTAHTHSRSDSNSSVKFGHQPTSSVASTKSSSKSPRATSRKSIYDDIRSQFPNLTPNSTSSQFYESTPVIEQSFNWTTDDHISAGTLENPTSFTNSSYKNDNGPSSLSDSRKSSGGNSVNSLSFDKLILSWDPTDPDEWTMHRVTSWFKFHDFPESWILFFKKHQLFGHRFIKLLAYDNFAVYEKYLPQTKTASYTRFQQLLKKTMTKNVTNSHIRQKSASKLKSSRSSSESIKSKLKNSKSQEDISNSRSTSESALSPTKSGPSKTDEKNFLHSTSTHQKTKSASSLYRRSFISLRGSSSSNASSAKSPSNIKLSIPARPHSIIESNSTLTKSASPPASPSYPSIFRRHHKSSSSESSLLNSLFGSGIGEEAPTKPNPQGHSLSSENLAKGKSKHYETNVSSPLKQSSLPTSDDKGNLWNKFKRKSQIGVPSPNTVAYVTSQETPSLKSNSSTATLTVQTADVNIPSPSSSPPPIPKTANRSLEVISTEDTPKISSTTASFKETYPDCINPDKTVPVPVNNQKYSVKNFLLDQKFYPLKKTGLNDSENKYILVTKDNVSFVPLNLKSVAKLSSFKESALTKLGINHKNVTFHMTDFDCDIGAAIPDDTLEFLKKSLFLNTSGKIYIKDQMKLQQKPKPAPLTSENNVPLKSVKSKSSMRSGTSSLIASTDDVSIVTSSSDITSFDEHASGSGRRYPQTPSYYYDRVSNTNPTEELNYWNIKEVLSHEENAPKMVFKTSPKLELNLPDKGSKLNIPTPITENESKSSFQVLRKDEGTEIDFNHRRESPYTKPELAPKREAPKPPANTSPQRTLSTSKQNKPIRLVRASTKISRSKRSKPLPPQLLSSPIEASSSSPDSLTSSYTPASTHVLIPQPYKGANDVMRRLKTDQDSTSTSPSLKMKQKVNRSNSTVSTSNSIFYSPSPLLKRGNSKRVVSSTSAADIFEENDITFADAPPMFDSDDSDDDSSSSDDIIWSKKKTAPETNNENKKDEKSDNSSTHSDEIFYDSQTQDKMERKMTFRPSPEVVYQNLEKFFPRANLDKPITEGIASPTSPKSLDSLLSPKNVASSRTEPSTPSRPVPPDSSYEFIQDGLNGKNKPLNQAKTPKRTKTIRTIAHEASLARKNSVKLKRQNTKMWGTRMVEVTENHMVSINKAKNSKGEYKEFAWMKGEMIGKGSFGAVYLCLNVTTGEMMAVKQVEVPKYSSQNEAILSTVEALRSEVSTLKDLDHLNIVQYLGFENKNNIYSLFLEYVAGGSVGSLIRMYGRFDEPLIKHLTTQVLKGLAYLHSKGILHRDMKADNLLLDQDGICKISDFGISRKSKDIYSNSDMTMRGTVFWMAPEMVDTKQGYSAKVDIWSLGCIVLEMFAGKRPWSNLEVVAAMFKIGKSKSAPPIPEDTLPLISQIGRNFLDACFEINPEKRPTANELLSHPFSEVNETFNFKSTRLAKFIKSNDKLNSSKLRITSQENKTE
binds | TOD6 (protein, UniProt P34219 1-525) MTLPKLSSVSVSSGHVSANSHGFSILSKHPHPNNLVHSHSLSHTNAKSHLPISSTSTKENSTNKEEAESLKKNNPSSWDPSDDIKLRHLKEIKNLGWKEIAHHFPNRTPNACQFRWRRLKSGNLKSNKTAVIDINKLFGVYATGDATPSAGTPSAEEAVKEEAVEDEDITAGSSAIEDSPPDFKPLVKPKYMDRKLITQRSTSTFSDHEPQHTKPRKLFVKPRSFSHSITTNTPNVKTAQQTNLSLYNTTSAKTNKAVNSNDYENIGLVPKIIIRSRRNSFIPSTQIPHSTTKTRKNSHSVISSRRSSFNMMHSRRSSFNSHAPTEPISRRASLVVSPYMSPRRLSTSQSVHYHPQHQYYLNPIASPNCKTDHANDKITHTRTFLDMQKFANKHPWSREDDEVLLNNTKDKQNHLSPLEISIVLPNNRSELEIQQRMDYLKRKGRVSGFHTNEGCKDEEEEDDIDPLHKENGINTPSQQSQNYGMLEAKHDNPKSSELSSMTSANDIRNEQDELPGINSIFKNIF
binds | TOS1 (protein, UniProt P38288 24-455) DCTYSGGNYYCAQTDAIIYSNVGLSATYQDVTNMDESSCACTQADFTASGSLAPFNEELSVHFRGPIELLQFGVYYPNGESNALKKRSEKQSIESCKEGEAVVSRHKHQHKRDVAVEYVQVTSTVYVDSNGQTVTADSTNTVVGPAVPSSYTKDSTVLSSSAQAVETSESQSSISSSKTTSSAAAASSSSSSSSNTNGDWSRGSYFVPGSTSNCTFMNNQGGTAGSGVWSSCFGNSISFAASDGVSGAASAQALGDVTIKSGNEFMIFSGEECSGNNGDCGYYREGIPAYHGFGGADKIFVFEFSMPSDTSGSAYNQDMPAIWLLNAKIPRTLQYGDASCSCWKTGCGEMDLFEILTAGSDKLISHIHDGQDGGTQDYFERPTDGTLKAAVIFNSSDKTIHIIEVDESFDATLSDDVVDQWLSKSGSSAALP
binds | SIP1 (protein, UniProt P32578 1-815) MGNSPSTQDPSHSTKKEHGHHFHDAFNKDRQGSITSQLFNNRKSTHKRRASHTSEHNGAIPPRMQLLASHDPSTDCDGRMSSDTTIDKGPSHLFKKDYSLSSAADVNDTTLANLTLSDDHDVGAPEEQVKSPSFLSPGPSMATVKRTKSDLDDLSTLNYTMVDETTENERNDKPHHERHRSSIIALKKNLLESSATASPSPTRSSSVHSASLPALTKTDSIDIPVRQPYSKKPSIHAYQYQYLNNDETFSENSQMDKEGNSDSVDAEAGVLQSEDMVLNQSLLQNALKKDMQRLSRVNSSNSMYTAERISHANNNGNIENNTRNKGNAGGSNDDFTAPISATAKMMMKLYGDKTLMERDLNKHHNKTKKAQNKKIRSVSNSRRSSFASLHSLQSRKSILTNGLNLQPLHPLHPIINDNESQYSAPQHREISHHSNSMSSMSSISSTNSTENTLVVLKWKDDGTVAATTEVFIVSTDIASALKEQRELTLDENASLDSEKQLNPRIRMVYDDVHKEWFVPDLFLPAGIYRLQFSINGILTHSNFLPTATDSEGNFVNWFEVLPGYHTIEPFRNEADIDSQVEPTLDEELPKRPELKRFPSSSRKSSYYSAKGVERPSTPFSDYRGLSRSSSINMRDSFVRLKASSLDLMAEVKPERLVYSNEIPNLFNIGDGSTISVKGDSDDVHPQEPPSFTHRVVDCNQDDLFATLQQGGNIDAETAEAVFLSRYPVPDLPIYLNSSYLNRILNQSNQNSESHERDEGAINHIIPHVNLNHLLTSSIRDEIISVACTTRYEGKFITQVVYAPCYYKTQKSQISN
binds | TMC1 (protein, UniProt Q08422 1-150) MSDINEIEIPSRKDEIRQVTPKDPMHEIEDKSTYHAKIKKSDSGTVLGAIPLNSRSSSNSSVTSTGQSSRRVTKKTTKKKKKNACYFDTCSSAASKFIGDCNFCKGHFCSKHRLMENHACNGLTSCKEQLHQRNADKLEAEQTKAPKIQI
binds | SPC42 (protein, UniProt P36094 1-363) MNGSPTPKRYSSKSSRLYDDYYNIPYQYSNPTPMNRDYNDVGSRINADKLVPEEYKRNTEFINKAVQQNKELNFKLREKQNEIFELKKIAETLRSKLEKYVDITKKLEDQNLNLQIKISDLEKKLSDANSTFKEMRFPKVKDPMVDDDPVSENYDQINVPKHRAPDATGNPRTTNKVSNTSDQDSRLKAIERTLSVLTNYVMRSEDGNNDRMSPLPSPLNTILPINNRLNFQEPKRYNPTVKVNPSDDDIMMYESAELKRVEEEIEELKRKILVRKKHDLRKLSLNNQLQELQSMMDGDDNIKLDNVSKHNHATHRHSSQSSRDYSPSSDACLECSNDLYEKNRVKPENNMSETFATPTPNNR
binds | SNX41 (protein, UniProt Q04053 1-625) MDYNIFEAVHEQQSSTSDMDLSEEDNNPFVGTHHLYASGIGTTIGEARPENENSPPSSSSLPSSPAHSSSAGSSRASTSSSTSSHAVVEADAETEPFVSLSMSTTATISKFTPHDMNGTQQIQIIDAGDFKDPWGKHAIGYVILYENNKIIRRYSEFHSLRQSLTRLLPTIIIPPIPSKHSLLKYIWSPINAANDSKIISTRKKMLNSFLSNCLNIQEISNDIVFQKFLNPEFNWKDVLSSSPIIILPLNNLLAPPLSPTKPSPLHSILPIPSNSSLRNYNSIWQQHITVKSHNEISNLPTEILQNESQFTHIENLFQNYKRIITHLLKNIRSNKSHFHSLSTYFAELGAYYNAFSLENDITMPNSLRESENNSNNPMMEIISHIEKTGHSFDVIYISSEILIEKYTSILEDPINELLQFLNESFKVLNFKKLKFLQFKILERLIIEKETKLSSLTEIENQLQKINESLTRSTILTDENYKDTKAADLTFVKKDVRSLSKSSSNSSSSGHQNEIHIGASKLNYKTSTPTMNLNKLEIKQLTEQERSKQIKQLNQDLSKLKDCLSICISDMLEINNSSYNSLMHTYNHINLTIGKILKLFAASFKAWIKECLKNWKLAKLQIDEAL

Reference: PMC7140707
